{"sequences": {"note": "The chains behind the UniProt entries cited, without tags or fusion partners. Where a name states a change or a piece, a line headed by the entry shows the natural chain unless it says otherwise.", "UniProt P07333": "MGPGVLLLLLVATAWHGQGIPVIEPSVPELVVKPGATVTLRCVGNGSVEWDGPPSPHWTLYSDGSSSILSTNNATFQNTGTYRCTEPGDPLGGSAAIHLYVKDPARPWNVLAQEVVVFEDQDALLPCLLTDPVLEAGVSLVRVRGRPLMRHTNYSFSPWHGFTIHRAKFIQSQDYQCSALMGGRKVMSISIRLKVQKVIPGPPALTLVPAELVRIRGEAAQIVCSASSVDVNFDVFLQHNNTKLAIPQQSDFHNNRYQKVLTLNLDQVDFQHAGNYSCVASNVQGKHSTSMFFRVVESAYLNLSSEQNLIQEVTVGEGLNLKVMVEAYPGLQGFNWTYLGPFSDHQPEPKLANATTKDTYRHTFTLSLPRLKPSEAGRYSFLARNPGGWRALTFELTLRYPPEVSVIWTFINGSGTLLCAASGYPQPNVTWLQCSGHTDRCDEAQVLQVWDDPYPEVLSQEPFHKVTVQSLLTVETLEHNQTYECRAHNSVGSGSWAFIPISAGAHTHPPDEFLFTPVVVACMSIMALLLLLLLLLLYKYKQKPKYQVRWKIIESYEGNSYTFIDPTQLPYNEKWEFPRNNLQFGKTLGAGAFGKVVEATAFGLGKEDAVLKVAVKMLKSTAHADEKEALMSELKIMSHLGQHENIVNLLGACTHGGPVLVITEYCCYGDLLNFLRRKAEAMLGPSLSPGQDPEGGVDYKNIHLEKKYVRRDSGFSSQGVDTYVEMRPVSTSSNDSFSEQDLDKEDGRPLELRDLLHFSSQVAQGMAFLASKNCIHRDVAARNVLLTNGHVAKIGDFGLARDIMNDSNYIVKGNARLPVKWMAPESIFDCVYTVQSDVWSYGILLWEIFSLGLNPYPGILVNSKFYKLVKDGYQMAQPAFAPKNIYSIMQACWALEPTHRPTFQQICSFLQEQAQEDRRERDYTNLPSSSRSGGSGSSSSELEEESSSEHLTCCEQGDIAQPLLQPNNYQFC"}, "source": "patent US20170002081A1", "key": {"[1]": {"molecular_target": "human CSF-1R (form not stated) (human) (UniProt P07333)", "test": "quartz crystal microbalance (Attana)"}, "[2]": {"molecular_target": "CSF-1R20-512-Fc (R&D Systems cat. 329-MR) (human) (UniProt P07333)", "test": "ELISA, 300 ng coated CSF-1R20-512-Fc, 500 ng/ml antibody"}}, "note": "No constants are given. Whether binding was seen depends on the method and setting. Some results given as binding are weak or reduced against the parent protein; the word gives no strength.", "data": [{"binder": "H19K12 (antibody, V domains shown) VH: EVQLVESGGGLVQPGGSLKLSCAASGFTFSDAWMDWVRQSPEMGLEWVAEIRSKANNHATFYAESVKGRFTISRDDSKSSVYLQMNSLRAEDTGIYYCTRVKVGFDNWGQGTTLTVSS VL: DIQMTQSPSSLSASVGDRVTITCRASENIYSNLAWYQQKDGKSPQLLVHAATNLADGVPSRFSGSGSGTQYSLTISSLQPEDFGSYYCQHFWGTPRTFGGGTKLEIKR", "values": [{"measurement": "binding", "setting": "[1]", "result": "binds"}, {"measurement": "binding", "setting": "[2]", "result": "binds"}]}]}
